Measured values from paper PMC11798873.

Chains of the proteins cited; added tags and fusions are not shown. Lines headed by an entry give the natural chain unless they say otherwise; changes in a name come on top.
UniProt O95718: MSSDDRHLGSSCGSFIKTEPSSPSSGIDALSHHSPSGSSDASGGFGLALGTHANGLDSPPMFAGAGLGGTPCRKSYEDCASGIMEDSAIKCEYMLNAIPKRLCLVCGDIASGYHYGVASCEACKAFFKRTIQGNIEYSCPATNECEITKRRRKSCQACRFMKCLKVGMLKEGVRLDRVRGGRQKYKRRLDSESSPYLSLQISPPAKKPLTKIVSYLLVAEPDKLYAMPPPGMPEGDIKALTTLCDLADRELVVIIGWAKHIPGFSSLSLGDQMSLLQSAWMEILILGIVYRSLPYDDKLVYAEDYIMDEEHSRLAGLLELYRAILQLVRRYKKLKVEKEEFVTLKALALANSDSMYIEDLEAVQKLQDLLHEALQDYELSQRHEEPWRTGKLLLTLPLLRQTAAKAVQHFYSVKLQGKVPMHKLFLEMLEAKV
UniProt Q61312: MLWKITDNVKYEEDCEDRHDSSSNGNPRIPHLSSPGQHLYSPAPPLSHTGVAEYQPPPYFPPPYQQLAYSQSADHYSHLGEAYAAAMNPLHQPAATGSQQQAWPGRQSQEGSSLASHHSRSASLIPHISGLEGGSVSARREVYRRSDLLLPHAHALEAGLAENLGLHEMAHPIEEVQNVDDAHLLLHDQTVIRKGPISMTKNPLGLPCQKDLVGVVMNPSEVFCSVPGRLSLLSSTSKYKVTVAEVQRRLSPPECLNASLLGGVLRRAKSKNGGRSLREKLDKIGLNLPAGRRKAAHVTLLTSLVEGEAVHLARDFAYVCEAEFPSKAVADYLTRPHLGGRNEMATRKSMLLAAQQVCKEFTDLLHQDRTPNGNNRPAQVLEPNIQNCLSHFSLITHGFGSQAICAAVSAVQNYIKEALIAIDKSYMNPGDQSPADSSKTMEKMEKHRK

Biological target: ESRRB (human) (UniProt O95718)
Experiment: co-IP; anti-EOMES or anti-ESRRB on Dynabeads A and G; blot for TFAP2C; constant EOMES with increasing ESRRB, or constant ESRRB with increasing EOMES (amounts of transfected plasmid)

Substance: TFAP2C (from UniProt Q61312 1-449)
- binding: binds

No constants are given. Whether binding was seen depends on the method and setting. In cells and extracts the contact can be indirect. A result given as binding can be weak or reduced; the word gives no strength.
